The name of at least one read-out is uncertain.
Assay: Pharmacokinetic study, 4ET-01-021 with IV and PO dosing
Assay type: in vivo, CD-1 male mice
Procedure: 4ET-01-021 was dissolved in 10% dimethylacetamide (DMA)/90% propylene glycol (PG) for oral dosing and 10% DMI (dimethyl isosorbide)/15% EtOH (ethanol)/35% PG (propylene glycol)/40% NS (normal saline) for IV dosing. CD-1 male mice were dosed with 4ET-01-021 at 1.0 mg/kg (IV), 3.0 mg/kg (PO), or 10.0 mg/kg (PO). Plasma was collected at indicated timepoints and plasma concentration of 4ET-01-021 was measured using liquid chromatography-mass spectrometry/mass spectrometry (LC-MS/MS).
In mice, following IV administration with 1.0 mg/kg, plasma concentrations declined in a multiphasic manner with an initial concentration (Co) of 0.860 μg/mL and a last measurable concentration (Clast) of 19.3 ng/mL at 24 h post dose. […] Results are presented in Table 13; mean values averaged for 3 animals are shown.
Results are presented in Table 14; mean values averaged for 3 animals are shown.
Results are presented in Table 15; mean values averaged for 3 animals are shown.

## CCC1=CC2(CCC1)NC(=O)c1c(C)cc(Nc3cc(N)ncn3)c(=O)n12 (centres unmarked) [Compound 4ET-01-021, 6′-((6-Aminopyrimidin-4-yl)amino)-3-ethyl-8′-methyl-2′H-spiro[cyclohexane-1,3′-imidazo[1,5-a]pyridin]-2-ene-1′,5′-dione]
Oral 3 mg/kg
  time to reach peak plasma concentration (Cmax): ≤ 30 min
Oral 10 mg/kg
  time to reach peak plasma concentration (Cmax): ≤ 15 min

— patent US20230286983A1 (4E Therapeutics, Inc., priority 2020, published 2023)
